This assay concerns the target MBP-MCM9, wild type human MCM9 (human) (UniProt Q9NXL9). The assay can be described thus: mass photometry; 50 mM Tris-HCl pH 7.5, 100 mM NaCl; 50–200 nM final protein; no DNA; for MCM8–9 oligomers are counted in subunits (heterodimer 266 kDa, hexamer 798 kDa): heterodimers to tetramers and hexamers; both purified.

Amino acid sequences for entries named in this document (tags omitted).
UniProt Q9NXL9: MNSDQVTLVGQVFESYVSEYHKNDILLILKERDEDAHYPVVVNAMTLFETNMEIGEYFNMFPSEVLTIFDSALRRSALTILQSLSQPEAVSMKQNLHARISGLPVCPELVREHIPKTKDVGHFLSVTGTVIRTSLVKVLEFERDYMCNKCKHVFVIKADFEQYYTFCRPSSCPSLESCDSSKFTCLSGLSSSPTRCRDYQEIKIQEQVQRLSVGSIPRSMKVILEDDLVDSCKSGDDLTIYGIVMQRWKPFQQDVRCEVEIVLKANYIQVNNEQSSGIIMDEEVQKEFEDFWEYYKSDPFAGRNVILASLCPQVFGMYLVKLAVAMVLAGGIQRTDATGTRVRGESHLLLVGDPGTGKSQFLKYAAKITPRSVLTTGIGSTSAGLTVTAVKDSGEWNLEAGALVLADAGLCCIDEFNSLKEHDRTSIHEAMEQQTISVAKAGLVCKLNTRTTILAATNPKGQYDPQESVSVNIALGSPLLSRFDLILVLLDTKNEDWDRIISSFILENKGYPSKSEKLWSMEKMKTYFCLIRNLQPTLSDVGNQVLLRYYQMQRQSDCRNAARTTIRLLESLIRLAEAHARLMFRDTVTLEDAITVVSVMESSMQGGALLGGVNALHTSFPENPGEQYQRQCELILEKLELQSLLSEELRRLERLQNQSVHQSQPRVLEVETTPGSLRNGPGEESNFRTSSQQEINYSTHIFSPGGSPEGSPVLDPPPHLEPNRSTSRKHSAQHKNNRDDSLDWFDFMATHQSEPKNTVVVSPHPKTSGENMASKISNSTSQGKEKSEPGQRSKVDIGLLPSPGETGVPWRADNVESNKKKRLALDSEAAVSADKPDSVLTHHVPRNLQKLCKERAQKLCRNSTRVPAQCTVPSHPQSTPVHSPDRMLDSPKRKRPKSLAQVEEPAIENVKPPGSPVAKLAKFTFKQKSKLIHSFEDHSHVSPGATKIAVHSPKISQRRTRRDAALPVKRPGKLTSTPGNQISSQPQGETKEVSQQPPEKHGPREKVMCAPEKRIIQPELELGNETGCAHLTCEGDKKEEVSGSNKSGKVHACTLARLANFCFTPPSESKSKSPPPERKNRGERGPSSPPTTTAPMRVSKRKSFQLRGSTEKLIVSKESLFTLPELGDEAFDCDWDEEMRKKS

No constants are given. Whether binding was seen depends on the method and setting.

“MBP-MCM9, wild type human MCM9 (from UniProt Q9NXL9 1-1143)”: the binding result was “no binding”.

Values taken from PMC10350107.
